PMC5337621

Amino acid sequences for entries named in this document (tags omitted).
UniProt O14965: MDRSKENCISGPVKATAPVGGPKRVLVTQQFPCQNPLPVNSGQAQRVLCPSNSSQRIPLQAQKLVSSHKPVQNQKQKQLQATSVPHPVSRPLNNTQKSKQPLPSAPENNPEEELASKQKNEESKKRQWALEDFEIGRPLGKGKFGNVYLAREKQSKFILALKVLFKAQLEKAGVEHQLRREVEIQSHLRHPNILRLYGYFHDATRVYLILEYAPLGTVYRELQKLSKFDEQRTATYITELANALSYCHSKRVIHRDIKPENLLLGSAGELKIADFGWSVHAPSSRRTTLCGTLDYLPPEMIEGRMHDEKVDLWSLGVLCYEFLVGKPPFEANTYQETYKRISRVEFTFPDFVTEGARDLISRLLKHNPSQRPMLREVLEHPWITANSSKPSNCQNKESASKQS

B1: Forkhead box protein P1 (FOXP1) (protein, UniProt Q9H334 1-677)
chain: MMQESGTETKSNGSAIQNGSGGSNHLLECGGLREGRSNGETPAVDIGAADLAHAQQQQQQALQVARQLLLQQQQQQQVSGLKSPKRNDKQPALQVPVSVAMMTPQVITPQQMQQILQQQVLSPQQLQVLLQQQQALMLQQQQLQEFYKKQQEQLQLQLLQQQHAGKQPKEQQQVATQQLAFQQQLLQMQQLQQQHLLSLQRQGLLTIQPGQPALPLQPLAQGMIPTELQQLWKEVTSAHTAEETTGNNHSSLDLTTTCVSSSAPSKTSLIMNPHASTNGQLSVHTPKRESLSHEEHPHSHPLYGHGVCKWPGCEAVCEDFQSFLKHLNSEHALDDRSTAQCRVQMQVVQQLELQLAKDKERLQAMMTHLHVKSTEPKAAPQPLNLVSSVTLSKSASEASPQSLPHTPTTPTAPLTPVTQGPSVITTTSMHTVGPIRRRYSDKYNVPISSADIAQNQEFYKNAEVRPPFTYASLIRQAILESPEKQLTLNEIYNWFTRMFAYFRRNAATWKNAVRHNLSLHKCFVRVENVKGAVWTVDEVEFQKRRPQKISGNPSLIKNMQSSHAYCTPLNAALQASMAENSIPLYTTASMGNPTLGNLASAIREELNGAMEHTNSNESDSSPGRSPMQAVHPVHVKEEPLDPEEAEGPLSLVTTANHSPDFDHDRDYEDEPVNEDME
B2: SOX30 (protein, UniProt O94993 1-753)
chain: MERARPEPPPQPRPLRPAPPPLPVEGTSFWAAAMEPPPSSPTLSAAASATLASSCGEAVASGLQPAVRRLLQVKPEQVLLLPQPQAQNEEAAASSAQARLLQFRPDLRLLQPPTASDGATSRPELHPVQPLALHVKAKKQKLGPSLDQSVGPRGAVETGPRASRVVKLEGPGPALGYFRGDEKGKLEAEEVMRDSMQGGAGKSPAAIREGVIKTEEPERLLEDCRLGAEPASNGLVHGSAEVILAPTSGAFGPHQQDLRIPLTLHTVPPGARIQFQGAPPSELIRLTKVPLTPVPTKMQSLLEPSVKIETKDVPLTVLPSDAGIPDTPFSKDRNGHVKRPMNAFMVWARIHRPALAKANPAANNAEISVQLGLEWNKLSEEQKKPYYDEAQKIKEKHREEFPGWVYQPRPGKRKRFPLSVSNVFSGTTQNIISTNPTTVYPYRSPTYSVVIPSLQNPITHPVGETSPAIQLPTPAVQSPSPVTLFQPSVSSAAQVAVQDPSLPVYPALPPQRFTGPSQTDTHQLHSEATHTVKQPTPVSLESANRISSSASTAHARFATSTIQPPREYSSVSPCPRSAPIPQASPIPHPHVYQPPPLGHPATLFGTPPRFSFHHPYFLPGPHYFPSSTCPYSRPPFGYGNFPSSMPECLSYYEDRYPKHEGIFSTLNRDYSFRDYSSECTHSENSRSCENMNGTSYYNSHSHSGEENLNPVPQLDIGTLENVFTAPTSTPSSIQQVNVTDSDEEEEEKVLRDL

Molecular target: GST-AURKA (human) (UniProt O14965)
Assay: affinity purification with mass spectrometry; purified GST and GST-AURKA incubated with nuclear and cytoplasmic fractions from AGS cells (500 ug nuclear extract), in vitro GST pulldown, in-gel digestion and recovery of peptides; only the target purified

Binder | binding
B1 | binds
B2 | binds

Results are given in words; binding and its absence hold for the method and conditions named. In cells and extracts the contact can be indirect. A yes stands for co-enrichment or nearness to the bait. Other partners may have been found.
